For at least one compound, name, drawing or mass did not settle the structure.
Legend:
ES cells = conditions: day 9; cited from earlier work
ES-6 cells = test: Immunocytochemistry of ES cells differentiated by the 4-/4+ protocol; type: cell-based, mouse; conditions: RA 1 μM, MAP2 and low affinity NGF receptor staining
[1] = system: EB from ES cell line (ES-6); test: Cell proliferation / cell number in the EB screen (FIG. 9B); type: cell-based, mouse; conditions: same treatment as the neurogenesis screen
[2] = system: EB from ES cell line (ES-6) containing necdin-puromycin-IRES-β-galactosidase cassette; test: Embryoid body neurogenesis screen: necdin promoter-driven β-galactosidase expression; type: cell-based, mouse; conditions: 10 μM
Description: A brief description of the procedure follows. A tagged ES cell line containing a stably integrated necdin-puromycin-IRES-β-galactosidase cassette was allowed to form EBs. One thousand cells in 200 μl media without LIF were plated in a 96-well PCR plate. On the third day, the EBs were transferred to a 96-well tissue culture plate coated with laminin. The medium was changed on the fourth day and appropriate small molecule compounds were added with each compound being assessed in triplicate. Six wells received no treatment and six wells received treatment with vehicle control (DMSO or ethanol diluted in similar manner as small molecule compounds). […] Cells were lysed on the fifth day and the lysates were analyzed for β-galactosidase expression. […] Fold increase was calculated based on the respective vehicle control β3-galactosidase activity. […]
An ES cell line (ES-6; Preliminary Studies Section C.2.) containing a stably integrated necdin-puromycin-IRES-β-galactosidase cassette was allowed to form EB. […] The medium was changed on the fourth day and appropriate small molecule compounds were added with each compound being assessed in triplicate. […] Cells were lysed on the fifth day and the lysates were analyzed for β-galactosidase expression. […] Fold increase was calculated based on the respective vehicle control β-galactosidase activity. […]

Compound	Astrocytes, share of cells (ES cells) [%]	Neuronal cells, share of cells (ES cells) [%]	Neuronal differentiation by marker staining and morphology (ES-6 cells)	Increase in cell number / cell division [1]	Neurogenesis potential / hit call (hit = equal to or greater than NGF or RA controls) [2]
CC1=C(/C=C/C(C)=C/C=C/C(C)=C/C(=O)O)C(C)(C)CCC1 [RA, retinoic acid]	75	25	stain positive for MAP2 and the low affinity NGF receptor	–	–
O=C(/C=C/C=C/c1ccc2c(c1)OCO2)N1CCCCC1 [piperine]	–	–	–	no significant increase in cell number	not considered a hit

Reference: patent US7803619B2, “Embryoid body-based screen” (Geneprotech, Inc., priority 2004, dated 2010)
